First the molecules themselves.
B1: il2ra_site2_2erj_sap_21_mot_118502477c40609e6006f550458cdfaf_0001_af2_000000174_0001_16_29_H_._HHH_b1_00513_0001_0000200007_0000001_0_0001 (protein)
chain: SSSSSDEEREEILELLAEAAEIPDPEEVERLLREALELAREINDETLVRYIELALEHLEESSSSS
B2: il2ra_site1_3nfp_normal_mot_ems_3hM_3354_af2_000000165_0001_44_63_H_._HEEHE_2118_0001_0000200030_0000001_1 (protein)
chain: DFLEEFSKAVERVAEIVGVPHVSVSVSNGSVEVTFEGDDLQARAASKIVEEMARAAGIKVEVTVE
B3: il2ra_site2_3nfp_normal_mot_HHH_b1_05627_af2_000000038_0001_43_56_H_._HHH_b1_06090_0001_0000200013_0000001_0 (protein)
chain: SSSSDKREEYVEAALLAARLALEDGDPEIAEKHLEAALQLAEDIGNEELFEEIERLLRELRSSSS
B4: il2ra_site2_3nfp_normal_mot_HHH_b1_00660_af2_000000090_0001_40_57_H_._HHH_b1_04356_0001_0000200019_0000001_0 (protein)
chain: SSSSDRERVEELLEELKEAVERNDEELFRKLVREISNLIYEIGDFELFAILQELRFLFVQSSSSS
B5: il2ra_site1_3nfp_normal_mot_ems_3hM_3354_af2_000000165_0001_44_63_H_._HEEHE_2367_0001_0000200020_0000001_0 (protein)
chain: DEEEFEREIEKAIKRAARVDDVEVSVSNGRVEVTVNGNDVQARAALRIVELLVRSAGFEVTVTFE
B6: il2ra_site1_3nfp_sap_14_mot_HHH_b1_08149_af2_000000062_0001_43_57_H_._HHH_b1_02393_0001_0000400024_0000001_0_0001 (protein)
chain: SSSSDMQEIDRLLQEVMRLIANGNLEEAQELLERARELVEELGDELAKFLVEELEEHIKRRSSSS
B7: il2ra_site2_3nfp_normal_mot_HHH_b1_00660_af2_000000090_0001_40_57_H_._HHH_b1_07783_af2_0001_0000200003_0000001_0_af2pred_0001_1_af2pred_swapped (protein)
chain: SSSSSEEEEEAERLLERIERLLKEGDEEEAEKLLREVAQLINELENHELFAILLELFELVLSSSS
B8: il2ra_site2_2erj_normal_mot_HHH_b2_00789_000000198_0001_40_54_H_._HHH_b2_07923_0001_0000200011_0000001_1 (protein)
chain: SSSSSDEEVLELIAEAIELAHNGNPEEARRVLEEALELAQELNDPLFERYVELSLEDIRNSSSSS
B9: il2ra_site1_2b5i_normal_mot_ems_3hM_3687_af2_000000248_0001_45_64_H_._HHH_b1_06890_af2_0001_0000200008_0000001_0_af2pred_dldesign_0_af2pred (protein)
chain: SSSSSDFDAEFEAAVAEARRLKEAGKRREALKLLEELYKKASELGREEVEERLEELARELSSSSS
B10: il2ra_site2_3nfp_normal_mot_HHH_b1_07556_000000077_0001_42_55_H_._51cc31007119fa75359d0ea3f4aa2c22_0001_1_0001_0000100003_0000001_0 (protein)
chain: DLLEELRELVERLGNEELLVILFSAIADLINEDPEEAQRVLEELVRLLEEGNYEEAERLAREVLK
B11: il2ra_site1_3nfp_normal_mot_HHH_b1_04049_af2_000000244_0001_42_55_H_._HHH_b2_07296_0001_0000400014_0000001_0 (protein)
chain: SSSDESKEVQELLKEIIELLREGDEERVEELLEELKRIAHEANDPVAERLVRQYEKQVKLRFSSS
B12: il2ra_site1_2b5i_normal_mot_f5ff40796168375b462bec8614a1db4a_0001_1_000000138_0001_53_65_H_._HHH_b1_08222_0001_0000100001_0000001_0_af2pred_dldesign_0_af2pred (protein)
chain: SSSSSSRRELLEALIEEAKKLLEEGKNEEARKLLLLARRLARKMGDEERLAEIDALLEKVSSSSS
B13: il2ra_site2_2erj_sap_18_mot_HHH_b2_02773_000000031_0001_43_57_H_._HHH_b1_04639_af2_0001_0000300012_0000001_0_0001 (protein)
chain: SSSSDTELAHELLRFVYELAVKLGLSLEQLEELAELLQELLERGVSEEEAEEELRKLAEELSSSS
B14: il2ra_site2_2erj_normal_mot_HHH_b2_06726_000000006_0001_1_16_H_._HHH_b1_04199_0001_0000300043_0000001_1_af2pred_0001_af2pred (protein)
chain: SSSSSSEYREEIEELIEEARRVDEEEAVALLAEAAFLAVRNKDEEIFREVAELSLELYRRSSSSS
B15: il2ra_site2_3nfp_sap_32_mot_HHH_b1_04747_af2_000000013_0001_38_56_H_._d2d2be67f51fdd0abb6cd2a96bdf45ff_0001_1_0001_0000100002_0000001_0_0001 (protein)
chain: SSSSDTREFAEEVAERLRELRKEGNEEELRELLARAIHYVWERRDSEAYAILAQVAFKLHSSSSS
B16: il2ra_site1_1z92_normal_mot_HHH_b1_01245_000000029_0001_23_39_H_._HHH_b1_02142_0001_0000100011_0000001_0_af2pred_0001_af2pred (protein)
chain: SSSSDEERAAKTAVRIIAEAAGLSEEQQEELEKLAEELVERGLSLLEIKRELIKIAAKLLSSSSS
B17: il2ra_site1_1z92_sap_14_mot_HHH_b2_05238_af2_000000252_0001_38_55_H_._HHH_b1_07235_0001_0000500020_0000001_0_0001_af2pred_0001_af2pred_1_swapped (protein)
chain: SSSSDEELEEFAEQVVEELVREFGLSEHDKEALERDAEAAVRAGFSPRSIRIALRRAVEDQSSSS
B18: il2ra_site1_2b5i_sap_7_mot_HHH_b1_00824_af2_000000079_0001_41_56_H_._706564c13a40034bb3de594a58ae2d05_0001_0001_0000300014_0000001_0_0001_af2pred_dldesign_0_af2 … (protein)
chain: SSSSSSPREDIEALIAEARALHEAGEPERARRLLTLARRLARKHDDAEALARIAEVEAELSSSSS

The list shows a part of the results.

This assay addresses il2ra, P01589. The assay is described as follows: yeast display titration.
With B1, the “apparent Kd” value was “inactive: no binding seen”.
Consider B2, for which the “apparent Kd” value is “inactive: no binding seen”.
Take B3: the “apparent Kd” value is “inactive: no binding seen”.
B4: the “apparent Kd” value is “inactive: no binding seen”.
Turning to B5, the “apparent Kd” value is “inactive: no binding seen”.
In the case of B6 it was “inactive: no binding seen”; in that of B7, “inactive: no binding seen”; in that of B8, “inactive: no binding seen”.
Regarding B9, the “apparent Kd” value was “inactive: no binding seen”.
For B10, the “apparent Kd” value was “inactive: no binding seen”.
Regarding B11, the “apparent Kd” value is “inactive: no binding seen”.
For the molecule B12, the “apparent Kd” value is “inactive: no binding seen”.
As to B13, the “apparent Kd” value was “inactive: no binding seen”.
Turning to B14, the “apparent Kd” value is “inactive: no binding seen”.
Under B15 stands “inactive: no binding seen”.
As to B16, the “apparent Kd” value is “inactive: no binding seen”.
For B17, the “apparent Kd” value is “inactive: no binding seen”.
Under B18 stands “inactive: no binding seen”.

The values above are taken from PMC10163288.
